At least one structure is not confirmed: it was looked up by name or label, or the drawing left a doubt. Starred links: 1 amine or outer side, 2 acyl side, 3 side chain; linkers in the order of their positions; H or OH if unused. Non-standard residues stand in square brackets, D forms with d. Residues, ends and D or L forms follow the SMILES beside them. *: point of attachment. X1 = CC(N[*:1])C(=O)C(F)(F)C(=O)[*:2]; Boc = CC(C)(C)OC(=O)*
Key:
[1] = test system: definitive endoderm-like cells (DELCs); assay: Induction of pancreatic progenitor-like cells from DELCs (Pdx1/Nkx6.1 staining); assay type: cell-based, mouse; settings: 400-compound collection; confirmed in larger-well cultures
[2] = test system: MEL1 INS GFP/W hESC spheres; assay: hESC suspension differentiation, qPCR of NGN3 and NKX2.2 at day 8; assay type: cell-based, human; settings: compared to RCN condition / during RCN or R treatment
Description: FIGS. 16A-16D. Published protocols result in precocious endocrine differentiation by NEUROG3 activation. FIGS. 16A-C: Analysis of key pancreatic progenitor markers in clusters differentiated as outlined in FIG. 15A. R=Retinoic acid, C=Cyclopamine, N=Noggin, E=Epidermal growth factor, K=Keratinocyte growth factor, T=TBP, and A=ALK inhibitor. Data shown are representative of two independent experiments. FIG. 16A: PDX1, INS, GCG, NEUROG3, and NKX6.1 protein expression was assessed by whole mount staining of differentiated clusters at indicated time points. Note precocious expression of the endocrine marker NEUROG3 in the absence of NKX6.1 protein at days 6-9. FIGS. 16B and 16C: Flow cytometric quantification of PDX1^+ (orange gate), PDX1^+/NKX6.1^+ (blue gate), INS^+/NKX6.1^+ (green gate), and INS^+/NKX6.1^− (red gate) cells at indicated time points. […]
Total RNA was isolated with TRIZOL (Sigma) or micro/mini RNAeasy kit (Qiagen) and reverse transcribed using the iScript cDNA Kit (Bio-Rad) according to manufacturer's instructions. qPCR analysis was performed on an ABI 7900 HT Fast Real-Time PCR System (Applied Biosystems) and CFX Connect Real Time System (Biorad) using standard protocols. […] P-values were calculated using a two-tailed student's t-test. […]

γ-secretase = settings: read-out: IC50 for Aβ; cited from earlier work

## CC1=C(/C=C/C(C)=C/C=C/C(C)=C/C(=O)O)C(C)(C)CCC1 [retinoic acid]
[1]
  screen result: increase of Pdx1 and/or Nkx6.1 expression: Confirmed hits
[2]
  NEUROG3 (NGN3) and NKX2.2 mRNA transcripts: significantly lower levels

## CCC(C)C(NC(=O)C(NC(=O)OC(C)(C)C)C(C)C)C(=O)NC(C)C(=O)C(F)(F)C(=O)NC(C(=O)NC(C(=O)OC)C(C)CC)C(C)C (stereo not drawn) [Gamma-Secretase Inhibitor II] (Boc-VI[X1]VI-OMe; configuration not given here)
γ-secretase
  IC50: 13 µM
